± gives the standard deviation. This is a selection; strong and weak results do not stand in their true shares. Many of these values have a large error.
test system: MILI (PIWIL2) piRISC loaded with L1MC piRNA (26 nt); test: pre-steady-state target cleavage rate (min^-1); MIWI and MILI are mouse PIWI proteins and EfPiwi is from a freshwater sponge; tags in brackets are library labels; higher = faster piRNA-guided slicing of the target; conditions: guide: L1MC piRNA 5'p-UAACUAAAUACUAUGCAAGCUGUAGG; auxiliary factor: none (no GTSF1)
Outline: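 The method was Cleave-'n-Seq, in which uncleaved targets from a transcribed, DNA-blocked target RNA library were sequenced after exposure to active affinity-purified piRISC carrying one synthetic guide, with or without GTSF1 partner protein. Reactions contained 0.1 nM library, 1 nM piRISC and, where present, 500 nM GTSF1 in HEPES–potassium acetate buffer at 33 °C for 0–8 or 0–960 min. Reads were normalised to depth and to weakly complementary targets, three trials were pooled, and k3 was capped at 0.0001 min^-1. The pre-steady-state cleavage rate came from a burst-and-steady-state fit.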

Sequence | pre-steady-state target cleavage rate
UCCUCCUACAGCUUCCAAAGUAUUUAGUUA | 0.0037 ± 0.0022
UCCUGGAUCAGCUUGCUAUGUAUUUUCAAA | 0.000629 ± 0.0076
UCCUGGAUGUCGAACCAUUAGUAUUUAGUUA | < 0.0001
UCCUGGAUGUCCUUGGAUAGUAUUUAGAUA | 0.00107 ± 0.0068
UCCUGGAUGUCGAUGCAUAGGAUUUAGUUA | 0.00157 ± 0.0044
UCCUGCUAGAGCUUGCAUAGUAUUUACAAA | 0.00105 ± 0.0068
UCCUGCUACUCGUUGCAUAGUAUUUUCAAA | 0.00112 ± 0.0045
UCCUGGAACAGCUUGCUAUAGUAUUUAGUUA | 0.000838 ± 0.0069
UCCUGGAUGUCCAACCAUAGUAUUUAGUUA | 0.000975 ± 0.0046
UCCUGGAUGUCCAUGCAUAGUAUUAAGUUA | 0.00161 ± 0.0046
UCCUGGAUGUCGUUGCAUUGUAAUUAGUUA | 0.000339 ± 0.017
UCCUGGAUCAGCUUGCUAAGUAUUUACAAA | 0.000909 ± 0.006
UCCUGGAUGAGCUUGCAUAGUUAUUAGUAA | 0.001 ± 0.0074
UCCUGCUACAGCUUGCAUUCUAUUUUCAAA | 0.000288 ± 0.011
UCCUGGAACAGCUUGCAUCAGUAUUUAGUUA | 0.00122 ± 0.0047
UCCUGGAUGUCCAUGCAUAGAAUUUAGUUA | 0.00219 ± 0.0025
UCCUGGAUGAGCUUCCAUUGUAUUUAGUUA | 0.00121 ± 0.0054
UCCUGGAUGUCGAACCAUAGUAUUUCAGUUA | 0.000227 ± 0.021
UCCUGGAUGUCCUUGCAUACGUAUUUAGUUA | 0.00158 ± 0.0047
UCCUCCUACAGCUUGACAUAGUAUUUAGUUA | 0.00554 ± 0.0024

Sequence | pre-steady-state target cleavage rate
UCCUGGAUCAGCUUGCAUUCAAUUUAGUUA | 0.0025 ± 0.0027
UCCUGCUACAGCUUGCAUAGAUUUUACAAA | 0.000258 ± 0.0099
UCCUGGAUGUGCUUGCAUUAGUAUUUAGUUA | 0.000858 ± 0.0086
UCCUGCUACAGCAACCAUAGUAUUUAGUUA | 0.00278 ± 0.0039
UCCUGGAUGUCGAUGGAUAGUUUUUAGUUA | 0.000646 ± 0.0087
UCCUCCUACAGCUUGCAUAGUAAAAAGUAA | 0.000859 ± 0.0069
UCCUGGAUGUCGUUGCAUAGUAUCUAGUUA | 0.00293 ± 0.0035
UCCUGGAUGUGCUUGCAUUGUAAUUAGUUA | 0.00338 ± 0.0033
UCCUGGAUGUCGAUGCUUAGUAUUUAGAUA | 0.000389 ± 0.013
UCCUGGAUGUGGUUCCAUAGUAUUUAGUUA | 0.000696 ± 0.012
UCCUGGAUGUCGAUGCAUGUAUUUAGUUA | 0.000583 ± 0.0076
UCCUGCUACAGCAACCAUAGUAUUUAGUAA | 0.00141 ± 0.0048
UCCUGGAACAGCUUGCAUAGUAAAUAGAAA | 0.000955 ± 0.0057
UCCUGGAUGUCGAUGCUUAGUAUUUAGUAA | 0.00102 ± 0.0051
UCCUGGAUGUGGUUGCAAAGUAUUUAGUUA | 0.00983 ± 0.0026
UCCUGGAACAGCUUCGAUAGUAUUUAGAAA | 0.000613 ± 0.0083
UCCUGGAUGUCGUUGCAUUGUAUUUAGUAA | 0.000728 ± 0.0084
UCCUGGAUGAGCUUCGUUAGUAUUUAGUAA | 0.00034 ± 0.014
UCCUGGAUGUCGUUGCAUGAGUAUUUAGUUA | 0.00104 ± 0.0082
UCCUGGAACAGCUUGCAUAGUAAAAAGUUA | 0.00235 ± 0.0028
